# No constants are given. Whether binding was seen depends on the method and setting. In cells and extracts the contact can be indirect. Some entries that bind do so weakly or less than the wild type. Sequences can lack the tags named with a protein.
# Chains of the proteins cited; added tags and fusions are not shown.
# UniProt P26369: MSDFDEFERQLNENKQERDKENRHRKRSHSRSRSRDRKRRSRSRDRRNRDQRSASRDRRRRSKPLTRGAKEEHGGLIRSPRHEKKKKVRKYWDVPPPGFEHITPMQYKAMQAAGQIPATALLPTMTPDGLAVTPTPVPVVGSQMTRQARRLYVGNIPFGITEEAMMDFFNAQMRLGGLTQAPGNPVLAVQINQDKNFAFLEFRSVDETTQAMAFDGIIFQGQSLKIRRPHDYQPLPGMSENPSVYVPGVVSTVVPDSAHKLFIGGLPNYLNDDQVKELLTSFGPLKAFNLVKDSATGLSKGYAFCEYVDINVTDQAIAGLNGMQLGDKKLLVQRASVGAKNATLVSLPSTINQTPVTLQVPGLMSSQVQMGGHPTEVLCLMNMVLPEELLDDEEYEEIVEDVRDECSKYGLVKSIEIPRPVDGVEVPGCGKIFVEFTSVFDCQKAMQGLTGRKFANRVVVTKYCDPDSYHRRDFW
# T1: Flag-tagged U2AF1a (endogenous, U2af1a-only Tsc1-/- MEF cell line) (mouse (endogenous in Tsc1-/- MEFs)) (UniProt Q9D883)
# T1 sequence: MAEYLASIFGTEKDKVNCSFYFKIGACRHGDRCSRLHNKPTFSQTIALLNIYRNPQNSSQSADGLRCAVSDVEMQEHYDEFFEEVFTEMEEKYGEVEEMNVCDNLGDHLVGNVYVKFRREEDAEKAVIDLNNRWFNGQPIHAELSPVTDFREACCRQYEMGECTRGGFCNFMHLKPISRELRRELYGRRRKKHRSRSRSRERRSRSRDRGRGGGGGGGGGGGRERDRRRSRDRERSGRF
# T2: U2AF1b-Flag (expressed in HEK293) (UniProt Q01081)
# T2 sequence: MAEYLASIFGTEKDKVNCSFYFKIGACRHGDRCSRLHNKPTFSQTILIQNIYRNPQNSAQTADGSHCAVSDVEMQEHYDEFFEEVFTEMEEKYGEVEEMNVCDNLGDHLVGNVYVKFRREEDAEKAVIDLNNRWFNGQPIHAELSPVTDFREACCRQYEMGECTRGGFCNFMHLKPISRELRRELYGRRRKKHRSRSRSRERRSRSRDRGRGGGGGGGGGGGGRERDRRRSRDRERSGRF
# Tests used:
# [1] = target: T1, Flag-tagged U2AF1a (endogenous, U2af1a-only Tsc1-/- MEF cell line) (mouse (endogenous in Tsc1-/- MEFs)); assay: co-IP; anti-Flag immunoprecipitation from total cellular extracts of Flag-tagged U2AF1 isoform-specific Tsc1-/- MEF cell lines, western blot
# [2] = target: T2, U2AF1b-Flag (expressed in HEK293); assay: co-IP; MBNL2 co-expressed with U2AF1a-Flag or U2AF1b-Flag in HEK293; Flag-IP from nuclear fractions in the absence or presence of RNase A; blots with anti-Flag and anti-MBNL2
Molecule,binding [1],binding [2]
U2AF2 (from UniProt P26369 1-475),binds,–
"MBNL2 (expressed in HEK293) (protein, UniProt Q5VZF2 1-373) MALNVAPVRDTKWLTLEVCRQFQRGTCSRSDEECKFAHPPKSCQVENGRVIACFDSLKGRCSRENCKYLHPPTHLKTQLEINGRNNLIQQKTAAAMLAQQMQFMFPGTPLHPVPTFPVGPAIGTNTAISFAPYLAPVTPGVGLVPTEILPTTPVIVPGSPPVTVPGSTATQKLLRTDKLEVCREFQRGNCARGETDCRFAHPADSTMIDTSDNTVTVCMDYIKGRCMREKCKYFHPPAHLQAKIKAAQHQANQAAVAAQAAAAAATVMAFPPGALHPLPKRQALEKSNGTSAVFNPSVLHYQQALTSAQLQQHAAFIPTGSVLCMTPATSIDNSEIISRNGMECQESALRITKHCYCTYYPVSSSIELPQTAC",–,binds

# Reference: PMC6821156
